No constants are given. Whether binding was seen depends on the method and setting. In cells and extracts the contact can be indirect. Here binding means that the protein was enriched with, or labelled near, the bait; the list need not be complete. Sequences can lack the tags named with a protein.
Molecular target: T1, FLAG-BirA*-IBTK (inhibitor of Bruton's tyrosine kinase) (UniProt Q9P2D0)
T1 sequence: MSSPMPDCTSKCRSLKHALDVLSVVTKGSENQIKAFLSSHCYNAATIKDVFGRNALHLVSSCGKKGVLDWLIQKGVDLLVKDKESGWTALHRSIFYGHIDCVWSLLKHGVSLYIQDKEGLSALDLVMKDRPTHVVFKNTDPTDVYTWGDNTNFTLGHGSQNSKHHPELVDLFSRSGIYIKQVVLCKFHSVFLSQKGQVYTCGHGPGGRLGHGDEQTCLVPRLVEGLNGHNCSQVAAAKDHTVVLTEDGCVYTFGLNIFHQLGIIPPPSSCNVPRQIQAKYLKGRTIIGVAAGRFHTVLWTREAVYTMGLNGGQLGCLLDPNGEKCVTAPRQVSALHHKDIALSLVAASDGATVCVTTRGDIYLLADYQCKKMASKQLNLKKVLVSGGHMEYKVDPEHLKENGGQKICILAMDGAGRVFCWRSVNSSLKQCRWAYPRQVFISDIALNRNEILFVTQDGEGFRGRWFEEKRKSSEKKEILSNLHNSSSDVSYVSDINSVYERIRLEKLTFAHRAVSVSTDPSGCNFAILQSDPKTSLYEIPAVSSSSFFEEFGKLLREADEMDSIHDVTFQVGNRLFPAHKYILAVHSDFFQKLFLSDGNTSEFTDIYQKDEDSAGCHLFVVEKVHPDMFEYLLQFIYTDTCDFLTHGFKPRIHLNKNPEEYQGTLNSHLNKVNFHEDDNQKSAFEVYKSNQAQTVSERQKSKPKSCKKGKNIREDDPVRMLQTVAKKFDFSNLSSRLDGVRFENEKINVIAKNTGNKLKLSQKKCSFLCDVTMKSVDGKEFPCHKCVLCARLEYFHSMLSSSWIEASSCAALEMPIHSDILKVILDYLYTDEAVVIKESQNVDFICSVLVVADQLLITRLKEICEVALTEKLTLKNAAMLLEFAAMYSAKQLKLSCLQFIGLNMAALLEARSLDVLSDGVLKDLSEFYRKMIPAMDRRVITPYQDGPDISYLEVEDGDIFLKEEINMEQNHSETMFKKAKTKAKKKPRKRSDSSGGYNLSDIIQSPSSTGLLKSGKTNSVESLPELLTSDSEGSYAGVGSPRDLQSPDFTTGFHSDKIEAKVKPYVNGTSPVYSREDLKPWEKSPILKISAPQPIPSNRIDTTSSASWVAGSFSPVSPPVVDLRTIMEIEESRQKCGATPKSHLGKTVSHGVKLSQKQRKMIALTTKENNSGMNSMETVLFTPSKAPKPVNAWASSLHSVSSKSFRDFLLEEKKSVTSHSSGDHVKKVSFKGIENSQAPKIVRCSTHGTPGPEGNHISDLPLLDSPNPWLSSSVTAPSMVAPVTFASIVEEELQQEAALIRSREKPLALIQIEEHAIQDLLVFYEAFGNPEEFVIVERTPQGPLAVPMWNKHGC
Experiment: affinity purification with mass spectrometry; FLAG-BirA*-IBTK from DOX-induced Flp-In T-REx 293 cells; NP-40 lysis buffer (0.1% NP-40); anti-FLAG M2 agarose, eluted with FLAG peptide; SDS-PAGE, gel bands sequenced by MS

By UniProt entry, the sequences of proteins in these tests, tags left out.
UniProt P05198: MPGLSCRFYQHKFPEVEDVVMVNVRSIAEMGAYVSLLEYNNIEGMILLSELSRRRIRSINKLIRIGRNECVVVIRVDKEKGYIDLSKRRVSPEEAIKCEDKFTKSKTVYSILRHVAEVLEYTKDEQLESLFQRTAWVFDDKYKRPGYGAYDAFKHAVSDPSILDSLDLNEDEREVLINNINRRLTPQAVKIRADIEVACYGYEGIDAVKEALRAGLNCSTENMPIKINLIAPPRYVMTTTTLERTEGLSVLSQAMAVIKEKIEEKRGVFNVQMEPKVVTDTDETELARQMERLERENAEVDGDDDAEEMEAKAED
UniProt P60842: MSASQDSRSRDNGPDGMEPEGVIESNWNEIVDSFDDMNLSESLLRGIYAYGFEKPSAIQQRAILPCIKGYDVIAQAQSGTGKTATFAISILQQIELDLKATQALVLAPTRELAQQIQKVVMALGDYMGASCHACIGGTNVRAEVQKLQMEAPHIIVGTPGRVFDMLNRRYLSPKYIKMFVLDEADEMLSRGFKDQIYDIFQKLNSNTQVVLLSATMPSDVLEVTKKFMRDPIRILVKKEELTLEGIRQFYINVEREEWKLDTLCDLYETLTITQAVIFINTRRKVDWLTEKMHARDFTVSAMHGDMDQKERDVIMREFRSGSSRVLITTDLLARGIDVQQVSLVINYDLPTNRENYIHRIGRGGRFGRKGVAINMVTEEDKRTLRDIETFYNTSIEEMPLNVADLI

Row | binding | Substance
1 | binds | eIF2α, endogenous (from UniProt P05198 1-315)
2 | binds | eIF4A1, endogenous (from UniProt P60842 1-406)
